Patent publication US20210009682A1, “REDUCING CUTANEOUS SCAR FORMATION AND TREATING SKIN CONDITIONS” (Northwestern University, priority 2013, published 2021)
At least one structure is not confirmed: it was looked up by name or label, or the drawing left a doubt.

Key:
[1] = tested on: rabbit ear hypertrophic scar; test: Hypertrophic scar model in the rabbit ear (scar elevation index); format: in vivo
Experimental: As described in Example 1, full thickness 7 mm excision wounds were made on the ventral side of the rabbit ears at PODO. Amiloride (an ENaC inhibitor) or Celecoxib (a COX-2 inhibitor) was applied to the wounds every other day for a total of three times starting at POD14. Wounds harvested at POD28 and histological analysis was performed. (A-D) Representative pictures of wound histology at POD28. Rabbit ear wounds with Amiloride treatment (B) and control (A) and with Celecoxib treatment (D) and its control (C) are shown. (E) The scar elevation index (SEI) was calculated and used to evaluate the scar formation. (F. G) SEI. Twelve wounds for each dose of treatment and 12 controls were used for the analysis. *P<0.05. Scar bar stands for 1000 μm. **p<0.01. […] The present invention is not limited by such a mechanism and an understanding of the mechanism is not necessary to practice the present invention.
Sustained activation of dermal fibroblasts with accumulation of collagen is the main cause of hypertrophic scars (38, 39). […] The role of the ENaC-COX-2 pathway was investigated in vivo utilizing a well validated hypertrophic scar model in the rabbit ear (31, 40-43). Amiloride, an ENaC antagonist, was topically applied to the rabbit ear wounds after re-epithelialization was complete. Control scars, located on the contralateral ear, were treated with vehicle alone. […]

[2] = tested on: COX-2; test: COX-2 mRNA expression by RT-qPCR in human foreskin keratinocytes (HK) culture; format: cell-based; settings: LY294002 10 μg/ml, 16 hours
Experimental: FIGS. 2A-F. Regulation of COX-2 and PGE2 by sodium flux is mediated by ENaC. FIGS. A and B show mRNA expression analysis of COX-2 as described in Example 1. (A) COX-2 mRNA expression in HESCs. HESCs were cultured with increased water loss condition for 4 or 16 hours (n=4). Total RNAs were isolated and RT-qPCR was performed. Gene expression was normalized according to the expression level of GAPDH. The level of COX-2 expression in HESCs treated with increased water loss was compared to that in control cells, which was set at 100% as expression level. (B) COX-2 mRNA expression keratinocytes culture. Stratified wild type or ENaC-knockdown HaCaT cells were cultured with increased water loss or sodium concentration condition for 16 hours (n=4). (C) PGE2 protein expression. Monolayer wild type or ENaC-knockdown HaCaT cells were cultured with increased sodium concentration condition for 16 hours (n=4). The amount of PGE2 in culture medium was measured by ELISA. (D) Western blot analysis (n=4). […] After 10, 30, 60, 240 minutes treatment, samples were harvested and western blot was performed with antibodies against phosphorylated-Akt, and Akt. β-actin was detected as a loading control. […] Cox-2 mRNA (E) and PGE2 (F) protein expression were analyzed by RT-qPCR and ELISA. *p<0.05, **p<0.01. […]

[3] = tested on: PGE2; test: PGE2 in culture medium of HK by ELISA; format: cell-based, human; settings: LY294002 10 μg/ml, 16 hours

Row | Structure (SMILES) | scar formation / hypertrophy of rabbit ear scar (in words) ([1]; rabbit ear scar treatment, 28 days post wounding) | reduction of scar formation compared to control wound healing groups ([1]; rabbit ear wounds, lower concentrations) | induction of COX-2 in response to increased water loss and sodium concentration [2] | basal level COX-2 mRNA expression ([2]; control condition) | basal level PGE2 protein in culture medium ([3]; control condition) | PGE2 release in the culture medium ([3]; increased sodium concentration medium)
1 | Cc1ccc(-c2cc(C(F)(F)F)nn2-c2ccc(S(N)(=O)=O)cc2)cc1 [Celecoxib] | contributed to the reduction of hypertrophy | did not show significant reduction |  |  |  | 
2 | O=c1cc(N2CCOCC2)oc2c(-c3ccccc3)cccc12 [LY294002] |  |  | drastically reduced | reduced | reduced | also reduced
